Among all 330,000 compounds or so, about 670 (0.2%) were called active. The shares of active, inactive and inconclusive entries below differ from those in the screen.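 How the source made its calls: active means activity change below a set negative limit, meaning inhibition stronger than a set level (cut at about -70% in these data); inconclusive means activity change between two set negative limits; inactive means the rest.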
Biological target: Thyrotropin receptor (Homo sapiens) (UniProt P16473)
Assay: Antagonists of the Thyroid Stimulating Hormone Receptor: HTS campaign
Conditions: TSHR-expressing cells, TSH-stimulated cAMP HTRF, 2 h; at 11.5 µM; hits give low values
Outline: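 Inhibition of cAMP made by TSHR-expressing cells under TSH stimulation (4nM final, EC80; 2 h, 37 deg C) is quantified with a one-step lysis HTRF kit, anti-cAMP cryptate versus cAMP-d2.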
On the % scale 0 is the no-effect control and ±100 the full control effect.

Amino acid sequences for entries named in this document (tags omitted).
UniProt P16473, whole entry, looked up: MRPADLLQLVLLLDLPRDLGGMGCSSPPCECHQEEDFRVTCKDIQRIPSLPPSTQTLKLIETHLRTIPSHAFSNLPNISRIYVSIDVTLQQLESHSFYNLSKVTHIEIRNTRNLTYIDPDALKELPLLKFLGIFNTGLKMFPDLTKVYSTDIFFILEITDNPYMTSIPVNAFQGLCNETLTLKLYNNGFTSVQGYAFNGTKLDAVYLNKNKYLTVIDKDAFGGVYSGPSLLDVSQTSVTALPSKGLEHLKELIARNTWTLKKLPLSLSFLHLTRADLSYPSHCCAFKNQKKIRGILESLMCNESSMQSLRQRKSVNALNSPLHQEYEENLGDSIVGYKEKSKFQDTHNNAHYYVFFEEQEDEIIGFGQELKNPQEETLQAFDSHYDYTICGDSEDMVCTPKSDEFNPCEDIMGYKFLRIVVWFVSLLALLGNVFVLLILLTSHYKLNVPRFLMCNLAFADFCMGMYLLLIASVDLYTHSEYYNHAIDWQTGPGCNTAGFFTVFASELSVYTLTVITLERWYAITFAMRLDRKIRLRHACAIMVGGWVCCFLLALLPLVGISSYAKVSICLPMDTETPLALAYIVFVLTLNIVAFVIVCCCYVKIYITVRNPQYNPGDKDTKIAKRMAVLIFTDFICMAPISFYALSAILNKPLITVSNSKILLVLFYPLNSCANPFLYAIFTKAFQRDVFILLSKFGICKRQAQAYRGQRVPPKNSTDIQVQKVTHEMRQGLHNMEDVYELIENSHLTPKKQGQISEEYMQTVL

Structure (SMILES)	activity change, negative = inhibition
CCOC(=O)C(Cc1ccccc1)NC(=O)CCc1c(C)nc2ncnn2c1C (stereo unspecified)	inactive: -15.9%
CS(=O)(=O)c1ccc(C(=O)OCC(=O)NC23CC4CC(CC(C4)C2)C3)cc1[N+](=O)[O-]	active: -76.1%
O=C(N/N=C/c1cccc(Oc2ccc([N+](=O)[O-])cc2[N+](=O)[O-])c1)c1cncc(Br)c1	inconclusive: -59.9%
O=C(/C(N=Nc1cccc(C(F)(F)F)c1)=C(/O)c1cccs1)C(F)(F)F	inactive: -9.05%
Cc1cc(C)n(C(=O)CNC(=O)CCc2ccccc2)n1	inconclusive: -50.3%
CCSc1nsc(NC(=O)Nc2cccc(F)c2)n1	inconclusive: -66.6%
O=C(CSc1ccc(F)cc1)N1CCC(c2nc3ccccc3s2)CC1	inconclusive: -64.1%
CCc1cc(C(=O)N2CCc3c([nH]c4ccccc34)C2c2ccc(OC)cc2F)no1 (stereo unspecified)	inactive: 31.1%
CNC(=S)N(C)/N=C1/C(=O)N(Cc2c(Cl)cccc2Cl)c2ccccc21	inconclusive: -56.6%
COc1cccc(CN(C)CC(=O)Nc2ccccc2C(=O)NC2CC2)c1	inactive: 0.201%
COC(=O)c1cc(NS(=O)(=O)c2ccc(N3CCCCC3)c([N+](=O)[O-])c2)cc(C(=O)OC)c1	inactive: 14.7%
CC(=O)Nc1ccc(NC(=O)C(C)OC(=O)c2ccccc2C(=O)c2ccc(Cl)c([N+](=O)[O-])c2)cc1 (stereo unspecified)	inconclusive: -56.1%
O=C(CCSc1ccc(Cl)cc1)NC1CCCCC1	inconclusive: -51.4%
N#CC(C#N)=NNc1ccc([N+](=O)[O-])cc1	active: -75.9%
CC(=O)N1c2ccc(S(=O)(=O)N3CCC(C(=O)NC4CCCCC4C)CC3)cc2CC1C (stereo unspecified)	inconclusive: -55.8%
COC1=C(N)C(=O)c2nc(-c3nc(C(=O)O)c(C)c(-c4ccc(OC)c(OC)c4O)c3N)ccc2C1=O	active: -72%
COc1ccc(CC2=CC(=O)c3ccccc3C2=O)cc1	active: -83.2%
COC(=O)C(Cc1csc2ccc(Cl)cc12)NC(=O)c1ccc(Cl)cc1 (stereo unspecified)	inconclusive: -63.9%
COc1ccc(CC(=O)Oc2cc(C)ccc2C)cc1	inconclusive: -66.9%
COc1cccc(NC(=O)N2CCCC2C(=O)NCc2ccccc2)c1 (stereo unspecified)	inconclusive: -67.5%
Cc1cc2nc(SCCOC(=O)Nc3ccc(Cl)cc3)nc(C)c2cc1C	inconclusive: -61.5%
CCN(CC)CCN1C(=O)C(O)=C(C(=O)c2cc3ccccc3o2)C1c1cccnc1 (stereo unspecified)	inactive: 29.8%

Structure (SMILES)	activity change, negative = inhibition
CNC(=O)CC1C(=O)N(c2ccc(OC)cc2)C(=S)N1NC(=O)c1cccc(F)c1 (stereo unspecified)	inactive: 11.9%
O=C(Nc1ccc(Cl)c(Cl)c1)C1=Cc2ccccc2OC1	inconclusive: -66.3%
CCn1c(=S)sc2c(=O)n(CC(=O)Nc3ccccc3OC)c(C)nc21	active: -134%
COC(=O)c1ccccc1NC(=S)NC(NC(=O)COc1ccccc1)C(Cl)(Cl)Cl (stereo unspecified)	inactive: 3.85%
COc1ccc(CNC(=O)C(C)OC(=O)c2cccs2)cc1 (stereo unspecified)	active: -101%
Cc1ccc(F)cc1CNC(=O)C1CCC(=O)N(C2CC2)C1 (stereo unspecified)	inactive: 2.43%
Fc1cccc(Cl)c1CNCc1cccnc1	active: -106%
Cc1cc(C(C)(C)C)oc1C(=O)N(CC(=O)NC1CCCC1)c1cccc(C(F)(F)F)c1	inconclusive: -56.5%
Cn1cnnc1Sc1ccc(C(=O)NCCC23CC4CC(CC(C4)C2)C3)cc1[N+](=O)[O-]	inconclusive: -53.5%
COc1ccc(Cn2nnnc2C(c2ccccn2)N2CCN(c3cc(Cl)ccc3C)CC2)cc1 (stereo unspecified)	active: -92.7%
O=S(=O)(Nc1cccc(-n2cnnn2)c1)c1ccccc1C(F)(F)F	active: -136%
CC(=NCc1ccco1)C1=C(O)c2ccccc2C1=O	inconclusive: -52.9%
Cc1cccc2sc(NC(=O)C3CCN(S(=O)(=O)c4cc([N+](=O)[O-])ccc4Cl)CC3)nc12	inconclusive: -54.9%
O=C1OC(CC(=O)N(Cc2nnc(-c3ccc(Cl)cc3)o2)C2CC2)c2ccccc21 (stereo unspecified)	inconclusive: -56.5%
COc1ccc(NC(=O)Nc2ccc(Br)c(C)c2)cc1	inactive: -6.33%
Cc1c(C(=O)N2CCN(Cc3ccc4c(c3)OCO4)CC2)sc2ncnc(N3CCN(c4ccccc4)CC3)c12	inconclusive: -51.8%
CC1Cc2cc(-c3csc(NC(=O)Cc4cccs4)n3)ccc2N1S(C)(=O)=O (stereo unspecified)	active: -72.3%
CCOC(=O)/C=C/C(=O)Nc1cccc([N+](=O)[O-])c1	inconclusive: -57.1%
S=c1sc2c(Cl)ncnc2n1-c1ccccc1	inconclusive: -53.2%
CC(C)c1c(C(=O)N/N=C/c2cccc(OCc3ccccc3)c2)nnn1-c1nonc1N	inconclusive: -60.7%
COc1ccc(NC(=S)NC(=O)/C=C/c2ccco2)cc1	inconclusive: -65.1%
COc1ccc(C(=O)/C(=C\c2ccco2)N2C=CC=CC2=C(C#N)C#N)cc1	inconclusive: -52.6%

Reformatted: 3 of the compounds above
CNC(=O)CC1C(=O)N(c2ccc(OC)cc2)C(=S)N1NC(=O)c1cccc(F)c1 (stereo unspecified)
  activity change, negative = inhibition: inactive: 11.9%
CCn1c(=S)sc2c(=O)n(CC(=O)Nc3ccccc3OC)c(C)nc21
  activity change, negative = inhibition: active: -134%
O=S(=O)(Nc1cccc(-n2cnnn2)c1)c1ccccc1C(F)(F)F
  activity change, negative = inhibition: active: -136%

Next compounds.

Structure (SMILES)	activity change, negative = inhibition
Cc1cccc2nc(CSc3nc4ccccc4o3)cn12	inactive: 3.93%
O=[N+]([O-])c1cccc(S(=O)(=O)Nc2nc3ccccc3nc2Nc2cccc(S(=O)(=O)N3CCCCC3)c2)c1	inconclusive: -53.5%
COc1ccc(Cc2nc(C(=O)Nc3ccc(Cl)cc3)cs2)cc1	inconclusive: -51.9%
CCN(CC)C(=O)Cn1c(=O)n(-c2ccccc2)c(=O)c2sccc21	active: -80.9%
COc1ccc(NC(=O)CCNS(=O)(=O)c2ccc3c(c2)CC(C)N3C(C)=O)cc1 (stereo unspecified)	active: -91.9%
O=[N+]([O-])c1cc(Br)c(O)c(/C=N/Nc2nnnn2-c2cccc3ccccc23)c1	active: -74.5%
COc1ccc(CCNc2nc(C)nc3c2oc2ccccc23)cc1OC	inconclusive: -69.3%
CCCNC(=O)c1ccc(CN2CCc3ccccc3C2)cc1	inactive: 0.685%
CCN(C(=O)COC(=O)C12CC3CC(CC(NC(C)=O)(C3)C1)C2)C1CCCCC1	inconclusive: -56.4%
O=C1c2ccccc2S(=O)(=O)N1CC1CC(c2ccc(Cl)cc2)=NO1 (stereo unspecified)	inactive: -14.1%
O=C(Nc1ccccc1)Nc1ncc([N+](=O)[O-])s1	inconclusive: -69.3%
FC(F)(F)c1cccc(-c2nc3nc(Cl)c(Cl)nc3[nH]2)c1	inconclusive: -61.8%
CC(=O)N1c2ccccc2C(C)(c2ccccc2)CC1(C)C (stereo unspecified)	active: -77.9%
O=C(CCc1c[nH]c2ccccc12)N1CCN(c2ccc(O)cc2)CC1	inactive: -7.41%
C=CCNC(=O)c1c(C(F)(F)F)nn(C)c1Cl	inconclusive: -67.3%
O=C1NC(=S)SC1=C1CCCCCC1	active: -80.8%
Cc1ccc(CNC(=O)CCS(=O)(=O)c2ccc3c(c2)CC(C)N3C(=O)C2CC2)cc1 (stereo unspecified)	inconclusive: -58.7%
CCOC(=O)c1c(-c2ccccc2)csc1NC(=O)c1cccc(N2C(=O)CCC2=O)c1	inconclusive: -58.3%
C=CCOc1ccccc1CN(CCc1ccccc1)C(=O)c1cccc(S(C)(=O)=O)c1	inconclusive: -56.6%
N#Cc1ccc(OCC(=O)OCCCOC(=O)COc2ccc(C#N)cc2)cc1	inconclusive: -59.6%
Cc1c(Cl)cccc1NC(=O)COC(=O)c1c2c(nc3ccccc13)CCN(Cc1ccccc1)C2	inactive: 25%
CCCOc1ccc(/C=C2/C(=O)ON=C2C)cc1Cl	inactive: 29.6%

Structure (SMILES)	activity change, negative = inhibition
O=C1C(NS(=O)(=O)c2cccs2)=C(N2CCOCC2)C(=O)c2ccccc21	inactive: 9.89%
Cc1cc(Cl)ccc1OC(C)C(=O)Nc1ccc(C(=O)Nc2ccccc2C(=O)O)cc1 (stereo unspecified)	inconclusive: -53.1%
Cc1ccc(NS(=O)(=O)c2cc(NC(=O)c3ccc4c(c3)NC(=O)CS4)ccc2Cl)c(C)c1	inconclusive: -54.8%
CC1(C)C2CCC1(C)C(OC(=O)CCn1ccnc1)C2 (stereo unspecified)	inconclusive: -60.3%
CCCCS(=O)(=O)/C=C\C=C/S(=O)(=O)CCCC	inconclusive: -56.8%
O=C(c1cnn2c(C(F)(F)F)cc(-c3cccs3)nc12)N1CCN(C(c2ccccc2)c2ccccc2)CC1	inactive: -2.8%
COc1ccc(-c2oc3ncn(CCN4CCOCC4)c(=N)c3c2-c2ccc(OC)cc2)cc1	inactive: -4.44%
Cc1ccc(SCCNC(=O)/C=C/c2ccccc2Cl)cc1	inconclusive: -59.8%
O=C(O)CCSc1nc2ccccc2n1Cc1ccccc1	active: -117%
COCc1cc(C)nc(SCc2ccc(F)cc2)c1C#N	inconclusive: -60.1%
O=[N+]([O-])c1ccc(O)c(Nc2ncnc3ccc(Br)cc23)c1	inconclusive: -57%
CCc1ccc(-n2c(=S)sc3c(=O)n(-c4ccccc4C)c(SCC(=O)O)nc32)cc1	inactive: -12.4%
Nc1nc(=S)[nH]c2c1C1(CCCCC1)Cc1ccccc1-2	inactive: 1.84%
Cc1cccc2c1-c1sc(C(=O)NCCCN3CCCC(C)C3)cc1CO2 (stereo unspecified)	active: -74.6%
COc1ccc(S(=O)(=O)NCCc2cn3nc(C)c(C)nc3n2)cc1F	active: -88.4%
CC(=O)Oc1cccc(N2C(=O)c3cccc4c([N+](=O)[O-])ccc(c34)C2=O)c1	inconclusive: -53.4%
Brc1ccc(OCc2nc(-c3ccccn3)n[nH]2)cc1	inconclusive: -54.1%
CN(CC(=O)Nc1ccccc1C(F)(F)F)Cc1c(O)ccc2ccccc12	active: -98.6%
CCOC(=O)CS(=O)(=O)c1nc(-c2ccccc2)cc(C(F)(F)F)n1	inconclusive: -53.2%
COC(=O)[C@@]1(Cc2ccc(OC)cc2)[C@@H]2C(=CC(=O)[C@H]2CC(=O)C(=O)N2CCCC2)CN1C(=O)c1ccccc1	inactive: -7.54%

Reference: PubChem BioAssay AID504810 (National Center for Advancing Translational Sciences (NCATS), 2011)
